## Primary screen of a compound library

Source: ChEMBL document CHEMBL3988442, “University of Dundee, Small-Polar-MMV Screening Library” (2021).

Values are the deposited “Percent Effect”, in %.
The record does not define 0% and 100%; most values in the screen are far below 50% and negative numbers occur (in some assays of this library far below -100).
This is an unselected part of the compounds tested.
Two or more numbers in one place are separate tests of the same structure; such repeats can differ widely.

Mtb glucose medium: 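Phenotypic screen: M. tuberculosis growth, glucose 7H9 medium, 3 days; the read-out is not stated. Compounds at 50 µM. Higher reads as more growth inhibition (inferred: compounds with an IC50 in retests scored well above the rest). About 69,000 compounds were tested under these conditions; 1.1% (about 760) showed 50% or more at least once.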
Mtb cholesterol medium: 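Phenotypic screen: M. tuberculosis growth, cholesterol and DPPC medium, 4 days; the read-out is not stated. Concentration: 50 µM. The record gives no direction; compounds that gave an IC50 in retests scored well above the rest, so higher reads as more growth inhibition. Size under these conditions: about 69,000 compounds, about 370 of them at 50% or above in at least one test.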

| compound | Mtb glucose medium | Mtb cholesterol medium |
|---|---|---|
| `O=C(NCc1ccoc1)NC1CCCN(c2ncccn2)C1` (stereo not shown) | -3.209% & 13.67% | -4.787% |
| `O=S(=O)(c1ccc(F)cc1)N1CCN(CCCn2ccnc2)CC1` | 5.71% & -21.1% | -5.152% |
| `CC(C(=O)Nc1ccc(N2CCCC2)nc1)n1cccn1` (stereo not shown) | 7.448% & 3.771% | -5.835% |
| `Cc1cnc(C(=O)NCc2ccc3c(c2)CCCN3C)cn1` | 2.97% | -0.5798% |
| `[H][C@@]12CCN(C(=O)c3ccc[nH]3)[C@]1([H])CCC(=O)N2Cc1csc(C)n1` | -7.352% | -1.042% |
| `O=C(c1cccc2ccnn12)N1CCC[C@H]1CN1CCCC1` | -24.54% | -15.36% |
| `CC(C)(CN1CCCC1)CN1CCC(Cn2cc(CCO)nn2)CC1` | -9.953% & -31.15% | -20.08% |
| `CCn1c(Cn2cccn2)nnc1C1CCN(Cc2ccc(C)o2)CC1` | -9.76% & -9.937% | -20.49% |
| `COc1ccc(C2(NC(=O)CCn3cncn3)CCCCC2)cc1` | 8.146% | -18.82% |
| `CC(NC(=O)Cn1cccn1)c1cccnc1` (stereo not shown) | 12.89% | 9.174% |
| `c1csc(N2CCN(c3nccn4cnnc34)CC2)n1` | 14.06% | 11.65% |
| `O=C(CCN1CCOC(C(F)(F)F)C1)NCc1ccc(Cl)cc1` (stereo not shown) | -4.321% & 8.317% | 3.517% & 4.142% |
| `CCCOCCOC(=O)c1ccc2c(c1)[nH]c(=O)n2C` | 6.363% | -23.24% |
| `Cc1cncc(C2CCN(C(=O)c3ccc(-n4cccn4)nc3)CC2)n1` | 14.42% | -17.18% |
| `Cc1ccc(CN2CCN(Cc3ccc4nonc4c3)CC2=O)cc1` | 10.45% | 10.9% & -0.09001% |
| `Cc1cc(C(=O)NC(C)CC(=O)c2ccco2)[nH]n1` (stereo not shown) | -2.422% | 5.135% |
| `CCC(=O)N1CCC(NC2CCCC2)C1` (stereo not shown) | -26.79% | -10.59% |
| `CCCc1noc(CN2CCN(c3nccs3)CC2)n1` | 10.19% | 23.49% |
| `Cc1cccc(C2(C(=O)NCC3CCN(CC(F)(F)F)C3)CCC2)c1` (stereo not shown) | 1.356% | -1.183% |
| `CCCc1n[nH]c(C2CN(CCNS(C)(=O)=O)CCO2)n1` (stereo not shown) | -31.77% | -23.38% |
| `CCC(C)NS(=O)(=O)Cc1cccc(NC(=O)c2cc[nH]c2C)c1` (stereo not shown) | -3.762% | 2.74% |
| `CN1CC(=O)N(c2ccccc2)CC12CCN(CC1CCOCC1)C2.O=C(O)C(F)(F)F.O=C(O)C(F)(F)F` (stereo not shown) | 7.28% | -9.69% |
| `Cc1ccc(C(=O)N2CCCCC2c2[nH]ncc2S(C)(=O)=O)cn1` (stereo not shown) | -20.71% | -3.452% |
| `CCc1c(C(=O)NCC2CCS(=O)(=O)C2)cnn1-c1ccc(C)cc1` (stereo not shown) | 3.03% | 5.975% |
| `CC1(CCC(=O)N2CCC(n3cc(C4(O)CCCC4)nn3)CC2)CC1` | -21.08% | -33.76% |
| `[H][C@@]12CNC[C@]1([H])[C@H]2CN1CCC(c2nnc(Cn3cncn3)n2CC)CC1` | -1.453% | -10.1% |
| `CC(NC(=O)NCCCc1n[nH]c(N)c1C#N)c1ccc(F)cc1` (stereo not shown) | -16.51% | -12.58% |
| `CCO[C@@H]1CO[C@@]2(CCCN(C(=O)COc3ccccc3OC)C2)C1` | 13.96% | -1.564% |
| `CC(C)CCN1CCN(C(=O)c2cccnc2-n2cncn2)CC1` | -11.01% & 5.387% | -2.748% |
| `COc1cccc(CNc2cc(C)nc(-c3ccncc3)n2)c1OC` | -3.202% | 2.117% |
| `Cc1ccc(S(=O)(=O)NCCCN2CCC(O)CC2)c(F)c1` | 11.32% & -15.75% | 13.59% |
| `Cc1c(C(C)NC2CCCC2)cnn1-c1ccc(F)cc1F` (stereo not shown) | -8.767% | 1.586% |
| `CC(C)n1ncc2c1NC(=O)C(C#N)C21CCCC1` (stereo not shown) | -24.51% | -17.19% |
| `Cc1cccc(Cl)c1NC(=O)Cn1cc(C(=O)O)ccc1=O` | -1.03% | -7.322% & -2.9% |
| `CC(=O)c1ccc(N2CCN(C(=O)NC(C)c3ccc(C)o3)CC2)cc1` (stereo not shown) | 13.51% & 10.77% | 5.614% |
| `c1cc(-c2n[nH]cc2-c2ccnc(N3CCCC3)n2)ccn1` | 13.84% | -2.6% |
| `CCS(=O)(=O)N1CCC(c2nccn2Cc2ccccn2)CC1` | 13.63% | 19.47% |
| `Cc1cccc(C(C)(C)CNC(=O)CN(C)S(=O)(=O)c2cccnc2)c1` | 13.45% & 0.5654% | 16.8% |
| `CCN1C(=O)CCCC12CCCN(C(=O)c1sccc1C)C2` (stereo not shown) | 1.167% | -8.824% |
| `O=C(O)C(F)(F)F.O=C(O)C(F)(F)F.[H][C@@]12CCCO[C@]1([H])[C@H](OCC)CN2Cc1scnc1C` | -1.03% & 4.204% | 7.464% & 2.54% |
| `Cc1c(-c2ccncc2)n[nH]c1NC(=O)CCOC(C)C` | 0.9893% & -26.47% | -8.031% |
| `CCCn1ncc(C(=O)NC2CCN(CC3CCCO3)CC2)c1C` (stereo not shown) | -38.99% | -23.1% |
| `[H][C@]12CCC[C@@]1(COCc1ccccn1)CN(C(=O)C1CCOCC1)C2` | 14.28% | -5.549% |
| `O=C(NCCN1CCCc2ccccc21)c1scnc1Cl` | 28.57% | 4.377% |
| `CC(C)CC1SCC(=O)Nc2c1cnn2-c1ccccc1F` (stereo not shown) | 18.1% | 7.184% |
| `CC(=O)NCC(=O)NCC1Cn2nnc(-c3cccc(F)c3)c2CO1` (stereo not shown) | -0.2879% & 0.6501% | -3.322% |
| `CC(NC(=O)NCCCN(C)S(C)(=O)=O)c1cccnc1` (stereo not shown) | 7.1% | 0.2091% |
| `O=C(O)C(F)(F)F.O=C(O)C(F)(F)F.[H][C@@]12C[C@H](C(=O)N3CCCCO3)CN(Cc3ccccc3F)[C@]1([H])CCO2` | -5.725% | 9.968% & -16.52% |
| `COc1ccccc1C(C)(C)NC(=O)NCCC(=O)NC1CCCC1` | -26.05% | -4.124% |
| `O=C(O)C(F)(F)F.[H][C@@]12OCCN(Cc3ccco3)[C@@]1([H])CC[C@H]2OCC1CC1` | 9.533% | 0.08208% |
| `CNC(=O)C1CCN(Cc2cc3c(cc2O)CCC3)CC1` | 14.07% | -31.17% |
| `O=C(NCC(c1ccccc1)N1CCOCC1)Nc1cn[nH]c1` (stereo not shown) | -1.86% | 6.189% |
| `COc1cccc(C(O)CN2CCN(C(=O)CCC(C)C)CC2)c1` (stereo not shown) | -31.25% | -11.46% |
| `CCc1c(C(=O)O)nnn1-c1cccc(C)c1C` | -39.52% | -15.59% |
| `CCOc1ncnc2c1CCN(S(=O)(=O)c1ccccc1)CC2` | 19.35% | -0.3757% |
| `Cc1nnc(CN2CCOC(c3ccc(Cl)cc3)C2)o1` (stereo not shown) | -40.75% & -6.339% | -17.72% |
| `CCN(CC)C(=O)COc1ccnc2cc(OC)ccc12` | -12.41% | -1.104% |
| `COc1ccc(CN(Cc2cnc(N)nc2)CC2CCCO2)c(OC)c1.O=C(O)CC(O)(CC(=O)O)C(=O)O` (stereo not shown) | -2.147% | 22.14% |
| `O=C(CCCn1cnnn1)N1CCC(c2ccncc2)CC1` | -23.35% | -19.66% |
| `CN(C)C(=O)NCC(=O)N(C)Cc1cc(-c2ccccc2)no1` | -25.48% | -22.39% |
| `CN(C)C(=O)N1CC2(CCNCC2)c2cc(F)ccc21.O=C(O)C(F)(F)F` | -2.655% | -33.42% |
| `O=C(CCOCC(F)(F)F)NS(=O)(=O)c1cccnc1` | 18.78% | 17.87% |
| `Cn1cc(CNC2CCc3c(ccc(=O)n3C)C2)cn1` (stereo not shown) | 4.853% | -18.27% |
| `Cc1ccc(OC2(C(=O)O)CCN(C/C=C/c3ccco3)CC2)c(C)n1` | -20.39% & 11.08% | 1.424% |
| `O=C(O)C(F)(F)F.[H][C@@]12CCCO[C@]1([H])[C@H](OCc1cccnc1)CN2C(=O)N1CCCC1` | -47.62% | -24.66% |
| `CCn1c(CC2CCN(S(=O)(=O)c3cccs3)CC2)nn(C)c1=O` | 4.13% | 8.939% |
| `COc1ccccc1CC(=O)N1CCC(NCc2ccccn2)CC1` | -7.638% | 2.625% |
| `Cc1ccoc1C(=O)NC1CCN(Cc2cccc3c2OCCO3)CC1` | 31.18% | 2.745% |
| `[H][C@]12CNC[C@@]1(C(=O)NCCNc1ccncc1C)CN(C(C)=O)C2` | -8.271% | -6.732% |
| `Cc1cnccc1N1CCCN(C(=O)CCCn2ccnc2C)CC1` | 11.62% | 3.776% & -7.463% |
| `CCOc1cc(NC(=O)NCCn2cnnc2CC)ccc1C` | -20.77% | -20.38% |
| `COCCN1CCC(CN(CC2CCCO2)C(=O)CNC(C)=O)CC1` (stereo not shown) | 12.28% | -7.462% |
| `[H][C@@]12CCN(C(=O)c3cnccn3)C[C@@]1([H])O[C@H](c1ccncn1)C2` | -8.109% | -12.99% |
| `COc1cccc(CC2CCCN2CCCO)c1` (stereo not shown) | 6.645% | -13.22% |
| `COCc1cnc2n1CCN(C(=O)c1ccc3ccccc3n1)C2C.O=C(O)C(F)(F)F` (stereo not shown) | -9.157% | -14.55% |
| `Cc1cc(NC(=O)CN2CCN(c3nccs3)C(C)C2)no1` (stereo not shown) | 34.31% & 0.4466% | 3.891% |
| `O=S(=O)(NCCC(O)c1cccs1)c1ccccc1` (stereo not shown) | 17.08% & 13.33% | 6.646% |
| `CCC(OC)C(=O)N1CCC2(CC1)c1nc[nH]c1CCN2S(C)(=O)=O` (stereo not shown) | -18.19% | -30.26% & 9.516% |
| `Cc1cc(C(=O)NCC(=O)NC(c2ncccc2C)C(C)C)c(C)o1` (stereo not shown) | 4.678% | -16.8% |
| `Cc1ncncc1-c1ccnc(N(C)C)n1` | -4.468% | -5.092% |
| `Cn1nc(CN2CCCC2)c2c1CN(CC1CC1)CC2.O=C(O)C(F)(F)F.O=C(O)C(F)(F)F` | -12.28% | -9.199% |
| `Cc1ccc(C(=O)N2CCCC(N(C)C(=O)OC(C)(C)C)C2)o1` (stereo not shown) | -20.74% | 2.588% |

For reference, 5 entries once more:

compound,Mtb glucose medium,Mtb cholesterol medium
CCN(CC)C(=O)COc1ccnc2cc(OC)ccc12,-12.41%,-1.104%
CN1CC(=O)N(c2ccccc2)CC12CCN(CC1CCOCC1)C2.O=C(O)C(F)(F)F.O=C(O)C(F)(F)F (stereo not shown),7.28%,-9.69%
CC(=O)NCC(=O)NCC1Cn2nnc(-c3cccc(F)c3)c2CO1 (stereo not shown),-0.2879% & 0.6501%,-3.322%
Cc1c(C(C)NC2CCCC2)cnn1-c1ccc(F)cc1F (stereo not shown),-8.767%,1.586%
Cc1cnc(C(=O)NCc2ccc3c(c2)CCCN3C)cn1,2.97%,-0.5798%